Data taken from PubChem BioAssay AID2685 (National Center for Advancing Translational Sciences (NCATS), 2010).
Some of the results follow. The main result of the screen is listed elsewhere. These columns were measured beside it and carry no call. Most of these compounds were active or inconclusive in the main read-out, so they are no random draw. The note in brackets gives the kind of curve behind each potency; many fits are weak.

Assay: qHTS Assay for Lipid Storage Modulators in Drosophila S3 Cells;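 as to cell number change: cells counted by Cell Tracker Red CMTPX staining in the red channel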
Details: BODIPY lipid droplet fluorescence, 18-24 h; for cell number change: measured here: cell count max response, cells fed with added oleic acid
Method in brief: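 Drosophila S3 cells loaded with oleic acid (400 uM, as added) and compounds at several concentrations; lipid droplets imaged by 488-nm laser-scanning cytometry, 500–530 nm intensity and object ratio to cell channel. Percent activity normalized to 20 uM Triacsin C.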

[1] = measured here: lipid fluorescence (Fed channel) AC50, cells fed with added oleic acid
[2] = measured here: cell number channel AC50, cells fed with added oleic acid

Structure (SMILES)	cell number change	AC50 [1]	AC50 [2]
COC(=O)c1cc(OC)c(OC)cc1NC(=S)N1CCN(C/C=C/c2ccccc2)CC1	15.7%	0.411 µM [rising, single point]	–
COc1ccc(Cl)cc1NC(=O)CN(C)C(=O)Cn1[nH]c(=O)c2ccccc2c1=O	-1.46%	29.1 µM [rising, single point]	–
CNC(=O)NC(=O)CSc1nnc(C(F)(F)F)n1C	-15.1%	2.59 µM [falling, partial curve]	–
COc1cccc(N2CCN(c3ccc4nnc(CCC(=O)Nc5ccc(F)cc5)n4n3)CC2)c1	-3.54%	–	–
C[C@@H](NC(=O)C1(c2ccccc2)CCN(C(=O)OC(C)(C)C)CC1)C(=O)N[C@@H](Cc1ccccc1)C(=O)O	-26.4%	2.31 µM [falling, partial curve]	3.26 µM [falling, full curve, poor fit]
NC(=O)c1cccc([N+](=O)[O-])c1	7.31%	0.00461 µM [rising, full curve, poor fit]	–
CCc1noc(C)c1C(=O)N1CCN(S(=O)(=O)c2ccccc2C(F)(F)F)CC1	11.7%	0.411 µM [falling, single point]	0.731 µM [falling, full curve]
C/C(=N\N=C1\NC(=O)C(CC(=O)NCc2ccccc2)S1)C(C)C (stereo unspecified)	-9.97%	–	2.59 µM [falling, partial curve, poor fit]
Cn1cccc1CC(=O)NNC(=O)Nc1cccc(Cl)c1	13.1%	0.00517 µM [rising, full curve, poor fit]	–
O=C(CCc1ccccc1)N1CCN(c2ccc(Cl)cc2)CC1	-2.42%	6.51 µM [falling, single point]	–
O=C1CCN(S(=O)(=O)c2ccccc2)CCN1CCOCc1ccc(C(F)(F)F)cc1	9.84%	4.61 µM [falling, single point]	–
Cc1ccc(C(=O)Nc2cccc(C(F)(F)F)c2)cc1Nc1cnccn1	-18.9%	–	–
CC(c1nnc(Sc2nnnn2-c2ccccc2)n1-c1ccc(F)cc1)N(C)C (stereo unspecified)	-25.6%	0.651 µM [falling, full curve]	0.651 µM [falling, full curve]
Cc1cc(C)c(S(=O)(=O)N(C)CC(=O)NCc2cccnc2)c(C)c1	40.8%	–	–
O=C(/C=C/Nc1ccccc1Oc1ccccc1)c1ccco1	-60.4%	12.6 µM [falling, partial curve, poor fit]	–
Cc1ccccc1-n1c(C)cc(/C=N/NC(=O)c2ccncc2)c1C	13%	0.00517 µM [rising, full curve, poor fit]	–
CCOc1ccc(C(=O)NC(C)(C)CC)cc1	0.637%	–	6.51 µM [rising, single point]
CCN(CCC(=O)O)c1ccccc1	10.4%	29.1 µM [falling, single point]	–
O=C(N/N=C/c1ccccc1OC(F)F)c1cc(-c2ccncc2)nc2ccccc12	30.9%	6.51 µM [rising, single point]	2.31 µM [rising, single point]
NCCCCc1ccc2ccc3cccc4ccc1c2c34	-35%	0.164 µM [rising, full curve, poor fit]	18.4 µM [falling, single point]

Structure (SMILES)	cell number change	AC50 [1]	AC50 [2]
O=C(CCN1C(=O)/C(=C/c2ccc(F)cc2)SC1=S)Nc1cccnc1	8.7%	6.51 µM [rising, single point]	–
Cc1cc(C(=O)CSc2ccc(Cl)cc2)cc(C)c1OC(=S)N(C)C	-17%	0.00517 µM [falling, full curve, poor fit]	–
COc1ccc(CNC(=O)CC23CC4CC(CC(C4)C2)C3)cc1	7.14%	6.51 µM [rising, single point]	–
CCCC(=O)N1CCN(c2ccc(NC(=O)c3sc4ccccc4c3Cl)cc2)CC1	-23.6%	6.51 µM [rising, single point]	–
Cc1cc(-c2ccccc2)[nH]c(=O)c1S(=O)(=O)c1ccccc1	14.1%	29.1 µM [rising, single point]	–
CCc1nc(SCc2nc3ccccc3[nH]2)c2oc3ccccc3c2n1	-3.06%	0.326 µM [rising, full curve]	0.326 µM [rising, full curve]
Cc1c(Br)c([N+](=O)[O-])nn1CC(=O)N1CCc2ccccc2C1	14.8%	29.1 µM [rising, single point]	–
COc1ccc(CN2CCNC(=O)C2CC(=O)NC2CCCC2)c(OC)c1 (stereo unspecified)	–	9.2 µM [rising, partial curve]	–
COc1ccc(C2C(C#N)=C(N)N(N(C)C)C3=C2C(=O)CCC3)cc1 (stereo unspecified)	-5.56%	1.46 µM [falling, full curve]	–
COc1ccc(C)cc1NC(=O)c1sc2ncnc(N3CCN(c4ccccn4)CC3)c2c1C	-5.56%	6.51 µM [falling, single point]	–
COc1ccc2[nH]c(N=Nc3ccccc3C)c(O)c2c1	17.2%	8.2 µM [rising, partial curve]	–
Cc1cc(C)c(S(=O)(=O)N2CCC(C(N)=O)CC2)cc1C	-4.95%	–	0.0517 µM [falling, full curve, poor fit]
CC(=O)Nc1ccc(C2=CC(=O)CC(C)(C)C2)cc1	-9.27%	–	0.651 µM [rising, single point]
Cc1cccc(/C=N/NC(=O)c2ccc(NC(=O)c3cccc(Cl)c3)cc2)n1	149%	11.6 µM [falling, single point]	16.4 µM [rising, partial curve]
O=C(CCNS(=O)(=O)c1ccccc1C(F)(F)F)NCCCSc1ccccc1	39.2%	–	35.5 µM [rising, single point]
COc1ccccc1Nc1ncccc1[N+](=O)[O-]	-38.8%	7.31 µM [falling, partial curve]	14.6 µM [falling, partial curve]
CC1(C)O[C@@H]2[C@H](O1)[C@@H](COS(=O)(=O)O)O[C@H]2n1ccc(=O)[nH]c1=O	-42.6%	10.3 µM [falling, single point]	32.6 µM [falling, single point]
COc1ccc(CNC(=O)c2ccc3c(c2)N(C)CCS3)cc1	4.61%	29.1 µM [rising, single point]	–
O=C(Nc1ccc2nc3n(c(=O)c2c1)CCCCC3)c1ccccc1Cl	-34.9%	29.1 µM [falling, single point]	29.1 µM [falling, single point]
CCOC(=O)c1sc(=NC(=O)c2ccc(C)cc2)n(C)c1C	-4.78%	0.461 µM [falling, single point]	–

Quoted from the results shown, 4 compounds:
Structure (SMILES)	cell number change	AC50 [1]	AC50 [2]
COc1ccc(C)cc1NC(=O)c1sc2ncnc(N3CCN(c4ccccn4)CC3)c2c1C	-5.56%	6.51 µM [falling, single point]	–
COc1ccc2[nH]c(N=Nc3ccccc3C)c(O)c2c1	17.2%	8.2 µM [rising, partial curve]	–
Cc1cc(C)c(S(=O)(=O)N2CCC(C(N)=O)CC2)cc1C	-4.95%	–	0.0517 µM [falling, full curve, poor fit]
CC(=O)Nc1ccc(C2=CC(=O)CC(C)(C)C2)cc1	-9.27%	–	0.651 µM [rising, single point]

Additional compounds:

Structure (SMILES)	cell number change	AC50 [1]	AC50 [2]
Cc1ccc(NC(=S)N2CCC(NC(=O)c3cccc(F)c3)CC2)cc1	-10.7%	32.6 µM [falling, single point]	–
CCCCCOc1ccc(C2C(C(C)=O)=C(C)Nc3ncnn32)cc1OC (stereo unspecified)	-23.3%	0.116 µM [falling, full curve, poor fit]	–
Cc1nn(-c2cc(N3CCOCC3)ccc2[N+](=O)[O-])c(=O)c2ccccc12	14.8%	1.03 µM [falling, full curve, poor fit]	–
CN1CCN(C(=S)Nc2ccccc2Cl)CC1	-33.8%	0.651 µM [falling, single point]	0.731 µM [falling, full curve]
COc1ccc(CNS(=O)(=O)c2ccc(S(=O)(=O)NC3CC3)cc2)cc1	-4.2%	–	–
O=C(NCCNc1ccc2ccccc2c1)c1cccn2c(=O)c3sccc3nc12	-17.5%	–	–
Cc1nn(-c2ccccc2)c2nc(-c3ccccc3)cc(C(=O)N3CCOCC3)c12	7.04%	–	–
CCOc1ccc(C(=O)OC2CCCN(C)C2)cc1 (stereo unspecified)	3.67%	–	–
CC(=O)N(C)c1ccc(NC(=O)Cc2cccs2)cc1	3.52%	0.291 µM [rising, full curve, poor fit]	–
Cc1ccc(NC(=O)c2sc(Cl)nc2-c2ccccc2)cc1C	40%	4.61 µM [rising, partial curve]	2.31 µM [rising, full curve]
CCOC(=O)N1CCN(Cc2cc(=O)oc3ccc4ccccc4c23)CC1	-28%	–	–
C=CCN(c1ccccc1)S(=O)(=O)c1cccc(C(=O)O)c1	-58.1%	6.51 µM [falling, single point]	10.3 µM [falling, partial curve]
O=C(Nc1nnc(/C=C/c2ccccc2)s1)c1ccco1	3.27%	–	1.84 µM [rising, single point]
CCn1c(=O)cc(OCC(=O)N(C)c2ccccc2F)c2ccccc21	-61.3%	–	29.1 µM [falling, single point]
Cc1ccc(-c2cnc(SCC(=O)N3CCCc4ccccc43)n2C)cc1	-6.25%	–	0.92 µM [falling, full curve]
O=C(NC(C(=O)NCCN1CCOCC1)C12CC3CC(CC(C3)C1)C2)C1CCCCC1 (stereo unspecified)	4.99%	–	–
COc1ccc(NC(=S)NCCSc2ccc(Cl)cc2)c(OC)c1	–	–	0.58 µM [rising, single point]
Cc1ccc[n+](CC(=O)c2ccc(NC(=O)c3ccccc3)cc2)c1	-2.46%	4.61 µM [rising, single point]	2.91 µM [rising, single point]
COc1ccc(C2/C(=C(/O)c3ccccc3)C(=O)C(=O)N2CO)cc1 (stereo unspecified)	-17.6%	–	–
CC(=O)Nc1ccc(S(=O)(=O)N2CCN(c3ccc([N+](=O)[O-])cc3)CC2)cc1	-15.4%	–	–
